Test results from paper PMC12305565.

Target: T1, C-C motif chemokine receptor 1 (CCR1) (human (endogenous in ESCC cells)) (UniProt P32246)
T1 sequence: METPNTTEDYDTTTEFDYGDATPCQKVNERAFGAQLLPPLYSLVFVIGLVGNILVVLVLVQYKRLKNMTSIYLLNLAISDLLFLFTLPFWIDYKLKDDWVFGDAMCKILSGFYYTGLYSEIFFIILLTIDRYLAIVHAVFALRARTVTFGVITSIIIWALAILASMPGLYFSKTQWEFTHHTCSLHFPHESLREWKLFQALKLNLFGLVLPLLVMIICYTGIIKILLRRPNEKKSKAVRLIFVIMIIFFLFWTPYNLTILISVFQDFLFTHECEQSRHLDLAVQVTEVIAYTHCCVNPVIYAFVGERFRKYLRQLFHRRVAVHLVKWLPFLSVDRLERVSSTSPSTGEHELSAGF
Assay: co-IP; in ESCC cells; bait, antibodies and buffer not told in the text shown (Figure S2A-S2B)

Question: How did the binding turn out when “chemokine (C-C motif) ligand 15 (CCL15) (human (endogenous in ESCC cells))” was run?
Answer: The binding was “binds”.

No constants are given. Whether binding was seen depends on the method and setting. In cells and extracts the contact can be indirect. A result given as binding can be weak or reduced; the word gives no strength.
